# Laboratory results: PubChem BioAssay AID1345085 (National Center for Advancing Translational Sciences (NCATS), 2018)
# This list was built around the results that the source calls inconclusive (neither active nor inactive); the mix of calls is not that of the screen. Potencies of inconclusive entries are doubtful fits and often do not repeat. The source made the active and inactive calls. The call rests on the fitted dose curve; in most records, active means well fitted cell-killing curve with a large enough effect; inconclusive means small, poorly fitted or top-dose-only effect, or effect the other way; inactive means no such curve, though single readings can be large or run the other way.
# Tested on: CAOV3
# Assay: Confirmatory qHTS for gynecologic anti-cancer compounds from libraries of approved drugs and bioactive compounds; further: nearly all actives have a fitted effect of over 55% in size
# Details: gynecologic cancer cell panel viability, ATPlite luminescence, 48 h; series mostly up to 57.6 µM; activity change, negative = viability loss: at the top concentration
# In short: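 Cells (1,000/well) plated 16 h, then exposed 48 h at 37 °C to 11 concentrations (1:3) from 57.5 uM to 0.977 nM. Viability by ATPlite luminescence after 15 min; IC50 derived, with HEK 293T used for selectivity index.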
# On the % scale 0 is the no-effect control and ±100 the full control effect; potency means the concentration at half of the fitted maximal effect.
Structure (SMILES),"activity change, negative = viability loss",Potency
CC(C)Oc1ccc(C(=O)NC(CNC(=O)CN(C)C)Cc2ccc(-c3cn4cccc(C(C)O)c4n3)cc2)cc1Cl (stereo not given),inactive: -17.3%,–
Cc1cnc(Nc2cccc(CN3CCOCC3)c2)nc1Nc1cccc(S(=O)(=O)NC(C)(C)C)c1,–,active: 10.9 µM
Cc1nc2ccc(CN(C)c3ccc(C(=O)NC(CCC(=O)O)C(=O)O)s3)cc2c(=O)[nH]1 (stereo not given),–,"inconclusive: 0.122 µM [cytotoxic, full curve]"
CCOC(=O)C1=C(C)NC2=C(C(=O)CC(C)(C)C2)C1c1ccc(-c2ccccc2)cc1 (stereo not given),–,"inconclusive: 17.2 µM [cytotoxic, partial curve, poor fit]"
Cc1ccccc1C(OCCN(C)C)c1ccccc1 (stereo not given),inactive: 8.74%,–
COC(=O)c1ccc2c(C(=Nc3ccc(N(C)C(=O)CN4CCN(C)CC4)cc3)c3ccccc3)c(O)[nH]c2c1,–,"inconclusive: 8.63 µM [cytotoxic, partial curve]"
NC(=O)c1cccc2cn(-c3ccc([C@@H]4CCCNC4)cc3)nc12,–,"inconclusive: 43.2 µM [cytotoxic, single point]"
Nc1cccc(-c2cc3c(Oc4cccc(O)c4)ncnc3[nH]2)c1,–,"inconclusive: 19.3 µM [cytotoxic, partial curve]"
CCCCN(CCCC)C(=O)CN1C[C@H](c2ccc3c(c2)OCO3)[C@@H](C(=O)O)[C@@H]1c1ccc(OC)cc1,inactive: -12.5%,–
COc1cc2c(Nc3ccc(NC(=O)c4ccccc4)cc3)ncnc2cc1OCCCN1CCOCC1,–,"inconclusive: 7.69 µM [cytotoxic, partial curve]"
CN(Cc1cnc2nc(N)nc(N)c2n1)c1ccc(C(=O)N[C@@H](CCC(=O)O)C(=O)O)cc1,–,"inconclusive: 17.2 µM [rising, partial curve, poor fit]"
O=C(NOC[C@H](O)CO)c1ccc(F)c(F)c1Nc1ccc(I)cc1F,inactive: -17%,–
CNC(=O)c1nn(C)c2c1C(C)(C)Cc1cnc(Nc3ccc(N4CCN(C)CC4)cc3)nc1-2,–,"inconclusive: 2.43 µM [cytotoxic, partial curve]"
O=C(O)C1(Cc2cccc(Nc3nccs3)n2)CCC(Oc2cccc(Cl)c2F)CC1 (stereo not given),–,"inconclusive: 8.63 µM [cytotoxic, full curve]"
CNc1nccc(-c2cccnc2Oc2cc(C(=O)Nc3cccc(C(F)(F)F)c3)ccc2C)n1,–,active: 24.3 µM
Nc1nc(Cl)nc2c1ncn2C1OC(CO)C(O)C1F (stereo not given),–,active: 0.544 µM
Cn1cnc([N+](=O)[O-])c1Sc1ncnc2nc[nH]c12,–,"inconclusive: 2.17 µM [cytotoxic, full curve]"
COC(C)(C)CCn1nc(Nc2c(C)cccc2C)c2cnc(Nc3ccc(OCCN4CCCC4)c(F)c3)nc21,–,active: 21.7 µM
O=C(NCC(O)CO)c1ccncc1Nc1ccc(I)cc1F (stereo not given),–,"inconclusive: 7.69 µM [cytotoxic, partial curve]"
Cc1cncc2cccc(S(=O)(=O)N3CCCN(C(=O)CN)C[C@@H]3C)c12,–,"inconclusive: 3.85 µM [cytotoxic, full curve]"
CNC(=O)CN1CCC(Oc2cc3c(Nc4cccc(Cl)c4F)ncnc3cc2OC)CC1,–,"inconclusive: 21.7 µM [cytotoxic, partial curve]"
COc1cc(N2CCC(N3CCN(C)CC3)CC2)ccc1Nc1ncnc(Nc2ccccc2S(=O)(=O)C(C)C)n1,–,active: 15.3 µM
Cc1c(NC(=O)OCC2COCCN2)cn2ncnc(Nc3ccc4c(cnn4Cc4cccc(F)c4)c3)c12 (stereo not given),–,"inconclusive: 30.6 µM [cytotoxic, single point]"
Cc1ccc(C(=O)Nc2ccc(Oc3cc4cnn(C)c4cc3-c3cn[nH]c3)c(F)c2)c(=O)n1-c1ccc(F)cc1,–,active: 6.85 µM
COc1cc2ncnc(Nc3ccc(F)c(Cl)c3)c2cc1OCCCN1CCOCC1,–,"inconclusive: 30.6 µM [cytotoxic, partial curve]"
NS(=O)(=O)c1ccc(Nc2nc(OCC3CCCCC3)c3[nH]cnc3n2)cc1,–,"inconclusive: 21.7 µM [cytotoxic, partial curve]"
O=C1N(c2ccccc2)c2ccccc2C1(Cc1ccncc1)Cc1ccncc1,inactive: 12.6%,–
Cc1ccc(NC(=O)c2ccc(CN3CCN(C)CC3)cc2)cc1Nc1nccc(-c2cccnc2)n1,–,"inconclusive: 12.2 µM [cytotoxic, partial curve]"
CN(C)c1ccc2nc3ccc(=[N+](C)C)cc-3sc2c1,–,"inconclusive: 13.7 µM [cytotoxic, partial curve]"
CCCCc1oc2ccc(NS(C)(=O)=O)cc2c1C(=O)c1ccc(OCCCN(CCCC)CCCC)cc1,–,"inconclusive: 43.2 µM [cytotoxic, single point]"

# Looked up above.
# Under Potency, `COC(C)(C)CCn1nc(Nc2c(C)cccc2C)c2cnc(Nc3ccc(OCCN4CCCC4)c(F)c3)nc21` is listed with active: 21.7 µM
# Under Potency, `NC(=O)c1cccc2cn(-c3ccc([C@@H]4CCCNC4)cc3)nc12` is listed with inconclusive: 43.2 µM [cytotoxic, single point]
